# From PMC9380819 (ACS Omega, 2022)
# Target: SARS-CoV-2 spike RBD (331–528 amino acids) (Severe acute respiratory syndrome coronavirus 2, UniProt P0DTC2)
# Test: biochemical
# Type: binding
structure (smiles),measurement,value
CC(C)NCC(O)COc1ccc(CC(N)=O)cc1 (stereo not shown) [atenolol],Kd,406 ± 206 nM
